Experiments:
Truncated mTOR kinase = target: T1, Truncated mTOR kinase (Homo sapiens, UniProt P42345); test: mTOR Assay (radiometric phosphorylation of 4eBP1); assay type: biochemical; conditions: 4eBP1 substrate, 10 μM ATP, 1 hour at room temperature
T1 construct: Truncated mTOR kinase and His-tagged 4eBP1 were produced in-house
Procedure: Truncated mTOR kinase and His-tagged 4eBP1 were produced in-house. [γ^33P]-ATP was purchased from Amersham (GE Healthcare). All chemicals, unless otherwise stated, were from Sigma-Aldrich.
Phosphorylation assays were initially performed in a final volume of 20 μL in 384-well polypropylene plate (Greiner). Compounds were typically tested over the range from 100 μM to 0.006 μM, in 8 step dilutions, in duplicate. 10 μL/well of 2× Enzyme-Substrate solution (1.5 μg/mL mTOR, 40 μg/mL 4eBP1 in 1× assay buffer: 10 mM Hepes pH 7.5, 50 mM NaCl and 10 mM MnCl2) were first added to the sample plate containing 1 μL/well of test compound in neat DMSO. The reaction was initiated by adding 10 μL/well of 20 μM ATP solution (final assay concentration 10 μM ATP and 0.4 μCi/well of [γhu 33P]-ATP). After 1 hour incubation at room temperature, the reaction was terminated with 40 μL/well of 20 mM EDTA/1 mM ATP solution.
50 μL/well of the stopped reaction mix was then transferred to 384-well MultiScreenHTS-PH filter plate (Millipore) pre-added with 50 μL/well of 1% phosphoric acid. The plate was washed 4 times with 120 μL/well of 0.5% phosphoric acid via vacuum filtration. Finally, 10 μL/well of Optiphase™ SuperMix liquid scintillation cocktail (Perkin Elmer) was added. […]

Protein sequences, listed by entry. Tags and fused reporters are not part of them.
UniProt P42336, whole entry: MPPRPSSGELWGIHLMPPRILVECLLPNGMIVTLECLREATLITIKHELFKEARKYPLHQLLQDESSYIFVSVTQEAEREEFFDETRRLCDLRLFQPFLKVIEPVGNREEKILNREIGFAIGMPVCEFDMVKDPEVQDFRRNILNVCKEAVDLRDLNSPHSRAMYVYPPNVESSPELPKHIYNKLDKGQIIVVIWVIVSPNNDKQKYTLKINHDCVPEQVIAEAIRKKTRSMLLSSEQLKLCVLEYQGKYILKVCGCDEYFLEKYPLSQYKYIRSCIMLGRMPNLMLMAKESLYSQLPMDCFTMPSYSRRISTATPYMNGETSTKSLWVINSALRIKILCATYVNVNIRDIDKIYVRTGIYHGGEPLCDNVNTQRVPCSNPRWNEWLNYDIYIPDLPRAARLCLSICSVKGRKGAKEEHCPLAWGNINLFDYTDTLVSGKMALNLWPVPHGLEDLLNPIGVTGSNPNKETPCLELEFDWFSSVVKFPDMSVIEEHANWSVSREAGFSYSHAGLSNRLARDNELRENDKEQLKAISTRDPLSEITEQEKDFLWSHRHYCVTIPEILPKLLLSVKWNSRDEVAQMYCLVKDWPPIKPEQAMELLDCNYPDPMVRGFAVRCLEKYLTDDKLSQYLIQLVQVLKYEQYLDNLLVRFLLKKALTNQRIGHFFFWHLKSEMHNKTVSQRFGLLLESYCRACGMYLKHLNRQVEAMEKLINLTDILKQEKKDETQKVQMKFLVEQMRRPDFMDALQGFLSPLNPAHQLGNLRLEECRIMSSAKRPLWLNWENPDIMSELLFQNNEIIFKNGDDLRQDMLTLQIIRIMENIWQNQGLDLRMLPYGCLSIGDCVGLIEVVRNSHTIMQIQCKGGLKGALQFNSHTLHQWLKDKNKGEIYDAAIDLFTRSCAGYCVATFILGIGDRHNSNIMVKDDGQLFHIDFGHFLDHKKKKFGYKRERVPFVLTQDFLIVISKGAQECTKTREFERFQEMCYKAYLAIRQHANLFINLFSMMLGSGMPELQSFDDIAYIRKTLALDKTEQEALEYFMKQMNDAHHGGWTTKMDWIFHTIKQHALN

[1] = target: T2, Recombinant PI3K p110α/p85 (Homo sapiens, UniProt P42336); test: PI3K Assay (radiometric lipid kinase assay); assay type: biochemical; conditions: p110α/p85, 2 μM ATP, 1 hour at RT; read-out: IC50 (PI3Kα)
T2 construct: made in house
Procedure: Recombinant PI3K p110α/p85 was prepared in-house. Phosphatidylinositol (PtdIns), phosphotidylserine (PtdSer) and all other unspecified chemicals were purchased from Sigma-Aldrich. [γ^33P]ATP and Optiphase scintillant were obtained from Perkin Elmer.
Assays were performed in a final assay volume of 25 μL in 384-well Maxisorp plates (Nunc). Compounds were tested at 8 concentrations in 3-fold serial dilution, generally starting from 10 μM. Maxisorp plates were coated with 20 μL/well of a 1:1 mixture of PtdIns and PtdSer [0.1 mg/mL each dissolved in chloroform:ethanol (3:7)] and left overnight in a fume hood at room temperature (RT) to dry.
The enzyme reaction was created by pipetting 5 μL/well of compound (in 2.5% DMSO), 10 μL/well of enzyme (0.5 μg/mL p110α+1 μg/mL p85), and 10 μL/well of 5 μM ATP with 5 μCi/mL [γ^33P]ATP in assay buffer (final concentrations: 0.2 μg/mL p110α, 2 μM ATP, 0.05 μCi/well [γ^33P]ATP in 1× assay buffer: 100 mM Tris-HCl pH 7.0, 200 mM NaCl, 8 mM MgCl2). The reaction was incubated for 1 hour at RT and terminated with 30 μL/well of 50 mM EDTA solution. The plate was then washed twice with TBS, dried, and added with 30 μL/well of scintillant before it was counted in a MicroBeta Trilux.

IC50 (Truncated mTOR kinase) [nM] | IC50 [1] [nM] | Compound
< 1000 | < 1000 | CC[C@@H](C)n1cnc2c(-c3cnc(N)nc3)nc(N3CCOCC3)nc21 [Compound 25]
– | < 1000 | CC[C@H](C)n1cnc2c(-c3cnc(N)nc3)nc(N3CCOCC3)nc21 [Compound 26]
< 1000 | – | CCC(C)n1cnc2c(-c3cnc(N)nc3)nc(N3CCOCC3)nc21 (centres unmarked) [Compound 26]
– | < 1000 | CCC(C)n1cnc2c(-c3cnc(N)nc3)nc(N3CCOCC3)nc21 (centres unmarked) [Compound 2, 5-(9-sec-butyl-2-morpholin-4-yl-9H-purin-6-yl)-pyrimidin-2-ylamine]

Source: patent US20140066620A1, “PYRIMIDINE SUBSTITUTED PURINE DERIVATIVES” (VERASTEM, INC., priority 2007, published 2014)
